Some of the results follow. The data scatter; read single values as rough.
target: T1, FLII C232 (UniProt Q13045); assay: log2 mean competition ratio of IA-DTB cysteine labelling (DMSO/compound) (log2 ratio); higher = stronger cysteine engagement by compound; details: 50 µM; treatment time: 4 h; cell line lysate: HEK293T
T1 sequence (whole entry): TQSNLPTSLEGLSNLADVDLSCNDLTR
Experimental: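 IA-DTB competitive cysteine chemoproteomics in HEK293T RIPA lysate. Lysates were treated with compound 29 or 30 at 50 or 200 µM for 4 h, then IA-DTB (500 µM, 1 h), trypsin-digested, NeutrAvidin-enriched and analysed by diaPASEF. Competition ratio = intensity DMSO / intensity compound (n=4 treated, n=64 DMSO); binding: mean log2 CR ≥ 1 and p ≤ 0.05 plus QC filters. Target is the cysteine site.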

Amino acid sequences for entries named in this document (tags omitted). A change or cut given only in a name is not applied to a line headed by its entry.
UniProt Q13045: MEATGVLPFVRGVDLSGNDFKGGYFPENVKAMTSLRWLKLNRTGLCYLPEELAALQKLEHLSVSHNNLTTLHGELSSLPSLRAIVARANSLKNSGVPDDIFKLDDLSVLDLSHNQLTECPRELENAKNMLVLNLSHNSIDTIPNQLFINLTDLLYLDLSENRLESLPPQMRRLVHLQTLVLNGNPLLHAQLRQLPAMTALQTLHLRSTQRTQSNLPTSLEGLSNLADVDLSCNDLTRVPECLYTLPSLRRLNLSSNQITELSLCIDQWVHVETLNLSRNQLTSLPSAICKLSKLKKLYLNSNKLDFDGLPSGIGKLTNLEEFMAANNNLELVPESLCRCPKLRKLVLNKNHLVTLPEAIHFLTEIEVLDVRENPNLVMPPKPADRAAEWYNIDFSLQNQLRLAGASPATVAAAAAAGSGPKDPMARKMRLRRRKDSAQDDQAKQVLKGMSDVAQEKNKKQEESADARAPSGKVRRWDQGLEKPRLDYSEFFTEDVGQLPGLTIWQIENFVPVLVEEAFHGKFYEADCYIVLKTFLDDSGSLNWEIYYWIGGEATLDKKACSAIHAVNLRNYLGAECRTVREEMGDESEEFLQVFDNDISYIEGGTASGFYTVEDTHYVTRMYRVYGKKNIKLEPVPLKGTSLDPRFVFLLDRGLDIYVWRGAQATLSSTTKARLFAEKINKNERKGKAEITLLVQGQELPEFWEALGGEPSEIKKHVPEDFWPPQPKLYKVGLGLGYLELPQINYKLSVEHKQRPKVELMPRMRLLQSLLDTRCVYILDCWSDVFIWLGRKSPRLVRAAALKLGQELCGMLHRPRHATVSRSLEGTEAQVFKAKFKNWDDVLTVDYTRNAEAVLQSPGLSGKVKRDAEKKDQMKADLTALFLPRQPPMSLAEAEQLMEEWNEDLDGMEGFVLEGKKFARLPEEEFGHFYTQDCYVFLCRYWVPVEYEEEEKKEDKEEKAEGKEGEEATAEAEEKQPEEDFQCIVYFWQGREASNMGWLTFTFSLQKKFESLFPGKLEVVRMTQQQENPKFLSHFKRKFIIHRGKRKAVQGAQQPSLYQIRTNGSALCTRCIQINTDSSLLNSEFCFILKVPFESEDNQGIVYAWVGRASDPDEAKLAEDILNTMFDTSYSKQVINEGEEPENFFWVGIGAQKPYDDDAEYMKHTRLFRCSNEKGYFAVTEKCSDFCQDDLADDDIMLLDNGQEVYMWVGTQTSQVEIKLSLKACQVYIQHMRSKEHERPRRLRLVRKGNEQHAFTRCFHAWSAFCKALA

SMILES	log2 mean competition ratio
O=C(CCl)N[C@@H]1CCCc2ccccc21	0.511
O=C(CCl)N[C@H]1CCCc2ccccc21	-0.296

same assay, conditions: 200 µM; treatment time: 4 h; cell line lysate: HEK293T

SMILES	log2 mean competition ratio
O=C(CCl)N[C@@H]1CCCc2ccccc21	0.235
O=C(CCl)N[C@H]1CCCc2ccccc21	-0.145

— the supplement of paper PMC11732987, “Enantioselective OTUD7B fragment discovery through chemoproteomics screening and high-throughput optimisation” (Communications Chemistry, 2025)
